Source: PubChem BioAssay AID1439 (NMMLSC, 2008)
In all, about 220,000 compounds went through this assay and about 770 (0.35%) were called active. The inconclusive results got no clear call from the source; some entries with a clear call stand among them for comparison. No stated cut-off is given here; in the data, active means binding response below about 49% or above about 150%; inconclusive means no clear call, values can overlap the other calls; inactive means in between.

The chains behind the UniProt entries cited, without tags or fusion partners.
UniProt P09471, whole entry, looked up: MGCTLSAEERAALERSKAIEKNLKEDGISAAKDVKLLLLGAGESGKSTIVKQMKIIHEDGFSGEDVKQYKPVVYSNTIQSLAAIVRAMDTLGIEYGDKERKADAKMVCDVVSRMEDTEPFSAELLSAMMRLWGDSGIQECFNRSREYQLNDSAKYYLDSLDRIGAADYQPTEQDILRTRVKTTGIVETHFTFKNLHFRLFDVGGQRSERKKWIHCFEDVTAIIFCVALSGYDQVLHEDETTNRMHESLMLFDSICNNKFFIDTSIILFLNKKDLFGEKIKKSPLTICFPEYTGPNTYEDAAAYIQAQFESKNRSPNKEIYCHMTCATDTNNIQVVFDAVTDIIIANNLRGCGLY

target: Guanine nucleotide-binding protein G(o) subunit alpha (Homo sapiens) (UniProt P09471); assay: RGS7-Galphao binding modulators, primary screen, biochemical, multiplexed bead flow cytometry (AID 1439); conditions: at 10 µM, actives lie on both sides;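 further: fluorescent Galphao held in activated GDP-AlF4 state binding bead-coupled RGS7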

Compound | binding response (% of control)
Cc1ccc(C2c3c(oc4ccccc4c3=O)C(=O)N2c2nncs2)cc1 (stereo not given) | inconclusive: 112%
Cc1cccc(/C(N)=N/OC(=O)COc2ccc(Cl)cc2)c1 | inconclusive: 81.2%
CCC(=O)N1CCC2(CC1)Oc1ccc(F)cc1C(=O)C21CC(c2ccc(Cl)cc2)=NO1 (stereo not given) | inconclusive: 107%
CN1CCN(c2cnn(-c3ccccc3)c(=O)c2Br)CC1 | inconclusive: 106%
Cc1ccccc1N1CCN(C(=S)c2ccc(-c3ccc([N+](=O)[O-])cc3)o2)CC1 | inconclusive: 96.1%
Cn1c(NC(=O)COc2ccccc2)cc(=O)n(C)c1=O | inactive: 97.5%
CCCC(=O)N/C(N)=N/c1nc2ccccc2o1 | inconclusive: 84.6%
CC1(C)Cc2c(C#N)c(NCCN3CCOCC3)nc(-c3ccccc3)c2CO1 | inconclusive: 149%
O=C(C1=C[C@@H](c2ccc(Br)cc2)C[C@@H](OCCCCO)O1)N1CCN(Cc2ccccc2)CC1 | inactive: 105%
O=C(COc1ccc2oc(-c3ccccc3)cc(=O)c2c1)Nc1ccccc1 | inactive: 100%
O=C(NCc1ccc2c(c1)OCO2)C1CCC(=O)N1C1CCCCC1 (stereo not given) | inconclusive: 122%
COc1ccc(/C=N/NC(=O)c2sc3nc(C)cc(C)c3c2N)cc1 | inconclusive: 120%
Oc1c(CN2CCN(c3ccccc3)CC2)cc(Br)c2cccnc12 | inconclusive: 108%
CCOC(=O)C(CCCP(=O)(c1ccccc1)c1ccccc1)(NC(C)=O)C(=O)OCC | inconclusive: -53.8%
CCOC(=O)N1CCC(NC(=O)c2cnc3n(c2=O)CCS3)CC1 | active: -21.1%
CC(=O)N1CCCc2cc(S(=O)(=O)NC(C(=O)NCc3ccc(C)cc3)C(C)C)ccc21 (stereo not given) | inactive: 104%
COc1ccccc1C1=NOC(Cn2c(NCC3CCCO3)nc3c2c(=O)n(C)c(=O)n3C)C1 (stereo not given) | inconclusive: 72.3%
CC1=NN(C(C#N)c2ccccc2C)C(C)(C)C1 (stereo not given) | inconclusive: 118%
CC(=O)Nc1ccc(/C=N/Nc2ccc(C(=O)c3c(C)cc4ccccn34)cc2[N+](=O)[O-])cc1 | inconclusive: 44.8%
CCOC(=O)c1c(NC(=O)c2ccccc2Br)sc2c1CCc1ccccc1-2 | inactive: 126%
COc1ccc(-n2c3c(c(=O)[nH]c2=O)C(NS(=O)(=O)c2ccc(Cl)cc2)(C(F)(F)F)C(=O)N3)cc1 (stereo not given) | inconclusive: 108%
COc1cccc(OC)c1C1=NC(C)(C)CO1 | inconclusive: 121%
COc1ccc([C@H]2C=C3CN(C(=O)OC(C)(C)C)S(=O)(=O)[C@H]3C[C@H]2OC(=O)c2cccs2)cc1 | inconclusive: 115%
CC(C)(C)c1cc[n+](C2=C([O-])c3ccccc3C(=O)/C2=N\S(=O)(=O)c2ccccc2)cc1 | inconclusive: 73.4%
O=C(NN1C(=O)C2C3C=CC([C@H]4CC34)[C@@H]2C1=O)c1ccc(Br)cc1 (stereo not given in full) | inconclusive: -19.1%
COC(=O)c1c(C)oc(C)c1S(=O)(=O)Nc1ccc(C(C)C)cc1 | inconclusive: 85.3%
O=C(Nc1nc2cc3c(cc2s1)OCO3)c1ccc(N2C(=O)CCC2=O)cc1 | inconclusive: -58.5%
Cc1ccc(N2C(=O)CN=C2Nc2nc(C)cc(C)n2)cc1 | inconclusive: 102%

A different layout for two compounds above.
Compound	binding response (% of control)
Cc1ccccc1N1CCN(C(=S)c2ccc(-c3ccc([N+](=O)[O-])cc3)o2)CC1	inconclusive: 96.1%
CC1(C)Cc2c(C#N)c(NCCN3CCOCC3)nc(-c3ccccc3)c2CO1	inconclusive: 149%

Further compounds follow:

Compound | binding response (% of control)
O=C(O)CC12CC3CC(C1)CC(n1ncc(NCc4ccco4)c(Cl)c1=O)(C3)C2 | inconclusive: -119%
Cc1ccsc1/C=N/N1CCN(c2ccccc2)CC1 | inactive: 99.2%
CC(C)CCN(CCC(C)C)CC(O)Cn1c2ccccc2c(=O)c2ccccc21 (stereo not given) | inconclusive: 11.1%
CC(=O)Nc1cccc(C(=O)OCC(=O)NC(C)c2ccc(F)cc2)c1 (stereo not given) | inconclusive: 93.8%
CC1CCN(C(=O)CC#N)CC1 | inconclusive: 120%
Cc1cc(C)n(-c2ncnc3sc(C)c(C)c23)n1 | inactive: 105%
Cn1cc2cc(NC(N)=S)ccc2n1 | inactive: 103%
OCC1(Cc2ccccc2)CCN(C2CCN(c3ccc(F)c(F)c3)CC2)CC1 | inactive: 97.7%
CC(C)Oc1ccc(Cc2cnc(N)nc2N)cc1 | inactive: 132%
COc1ccc(NC(=S)N2c3ccccc3CC2C)cc1OC (stereo not given) | inconclusive: 93.1%
COc1ccc(S(=O)(=O)N2CCN(C(=O)COc3ccc4c(C)cc(=O)oc4c3)CC2)cc1 | inactive: 101%
N#Cc1ccccc1Oc1ccccc1C=O | inconclusive: 104%
Cc1ccnn1CC(=O)N/N=C/c1cn[nH]c1-c1ccc(F)cc1 | inconclusive: 88.8%
O=C(Nn1cc(C(=O)Nc2ccccc2F)c2ccccc2c1=O)c1cnccn1 | inconclusive: 106%
COc1ccc(N(C(=O)Cn2nnc3ccccc32)C(C(=O)NCc2ccco2)c2ccc(C)o2)cc1 (stereo not given) | inactive: 102%
CN(C)C(=O)c1nc(C#N)c(N(C)C)o1 | inactive: 98.4%
O=C(N/N=C/C(Br)=C/c1ccccc1)c1ccncc1 | inconclusive: 59%
NC(=O)[C@H]1CC2(CC(c3cccc(NC(=O)CC(c4ccccc4)c4ccccc4)c3)=NO2)CN1C(=O)CC(c1ccccc1)c1ccccc1 (stereo not given in full) | inconclusive: 112%
CC(=O)OCC1OC(OC(C)=O)C(NC(=O)c2cccnc2)C(OC(C)=O)C1OC(C)=O (stereo not given) | inactive: 96.9%
Cc1ccc(NC(=O)Cn2nc(C)c(S(=O)(=O)N(C)C)c2C)cc1C | inconclusive: 97%
CCc1cc2c(=O)c(-c3nc(C)cs3)coc2cc1O | inconclusive: 104%
CCOc1ccc(C2NC(=O)NC(C)=C2[N+](=O)[O-])cc1OC (stereo not given) | inconclusive: 99.5%
Cc1ccc(NCC(=O)Nc2c(C)n(C)n(-c3ccccc3)c2=O)cc1S(=O)(=O)N(C)C | inconclusive: 149%
COc1ccc(C)cc1NC(=O)c1ccccc1NS(=O)(=O)c1ccc(Cl)s1 | inconclusive: 105%
Cc1sc(NC(=S)NC(=O)c2ccco2)c(C#N)c1C | inactive: 99.5%
O=C(/C=N/O)Nc1ccc2sc3ccccc3c2c1 | inconclusive: 99%
CN(C)c1ncnc(N(C)C)c1[N+](=O)[O-] | inconclusive: 301%
